Data published in patent US20050277656A1, “Combination comprising docetaxel and a CDK inhibitor” (Cyclacel Limited, priority 2002, published 2005).

Test system: PKC

CC[C@H](CO)Nc1nc(NCc2ccccc2)c2ncn(C(C)C)c2n1 [roscovitine, 6-benzylamino-2-[(R)-1-ethyl-2-hydroxyethylamino]-9-isopropylpurine]
IC50: > 50 µM
